# Data: PubChem BioAssay AID2685 (National Center for Advancing Translational Sciences (NCATS), 2010)
# The other results are listed elsewhere or left out. The main result of the screen is listed elsewhere. These columns were measured beside it and carry no call. The list favours compounds with an active or inconclusive main result. Potencies come from curve fits of mixed quality, noted in brackets.
# Test: qHTS Assay for Lipid Storage Modulators in Drosophila S3 Cells;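 as to cell number change: cells counted by Cell Tracker Red CMTPX staining in the red channel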
# Conditions: BODIPY lipid droplet fluorescence, 18-24 h; for cell number change: measured here: cell count max response, cells fed with added oleic acid
# In short: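 Drosophila S3 cells got compounds at several concentrations plus oleic acid (400 uM solution). Laser-scanning cytometry with 488 nm excitation read lipid droplets at 500-530 nm and cells at 575-640 nm. Percent activity was relative to 20 uM Triacsin C.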
# [1] = measured here: lipid fluorescence (Fed channel) AC50, cells fed with added oleic acid
# [2] = measured here: cell number channel AC50, cells fed with added oleic acid
Compound,cell number change,AC50 [1],AC50 [2]
O=[N+]([O-])c1ccc(N2CCN(c3ccc(F)cc3)CC2)nc1,-25.4%,"13 µM [falling, partial curve, poor fit]",–
COc1ccc(CNC(=O)CN(C(=O)CCC(=O)Nc2nccs2)c2ccc3c(c2)OCO3)cc1,159%,"29.1 µM [falling, single point]","20.6 µM [rising, partial curve]"
COCc1ccc(CN2CCC(C(=O)Nc3cccc(-c4cccc(Cl)c4)c3)CC2)o1,-27.9%,"16.4 µM [falling, partial curve]",–
C=CCOc1nc(N2CCCC2)nc(N2CCCC2)n1,156%,–,"18.4 µM [rising, partial curve]"
Cc1cc(C)n(CCCNC(=O)c2ccc(C)o2)n1,-32.9%,"0.146 µM [rising, full curve, poor fit]","5.17 µM [falling, full curve]"
COc1ccc(C(=O)NC(=S)Nc2cccc(S(=O)(=O)N3CCOCC3)c2)cc1,7.57%,–,–
N=c1oc2c3c4c(cc2cc1C(=O)Nc1ccccc1)CCCN4CCC3,–,"13 µM [falling, partial curve, poor fit]",–
CCN(CC(=O)NCc1cccs1)C(=O)c1ccc(S(=O)(=O)N(C)C)cc1,58.1%,"13 µM [rising, partial curve]","20.6 µM [rising, single point]"
Cn1c(SCC(=O)NC2CCCCCC2)nnc1-c1ccco1,3.96%,"29.1 µM [falling, single point]",–
CCCc1c(C(=O)Nc2ccc(F)cc2F)cnn1-c1ccccc1,-23.5%,"32.6 µM [falling, single point]",–
Cc1ccc(Sc2nc3ccc(C)cn3c(=O)c2/C=N/O)cc1,–,–,"0.00461 µM [rising, full curve, poor fit]"
O=C(Nc1ccc(Cl)cc1)c1nc[nH]c1C(=O)NCc1ccccc1,-44%,"0.461 µM [falling, partial curve, poor fit]","0.411 µM [falling, full curve]"
Cc1ccc(C)c(OCCC(=O)OCC(=O)N2CCN(S(=O)(=O)c3ccc(Cl)cc3)CC2)c1,50%,–,"4.11 µM [rising, single point]"
O=C(NCCCNCc1ccccc1)c1ccccn1,2.19%,"0.00517 µM [falling, full curve, poor fit]",–
O=C(CCNS(=O)(=O)c1ccccc1Cl)N1CCN(c2ccccn2)CC1,-6.87%,"18.4 µM [rising, partial curve, poor fit]",–
CCC(C)(C)c1nnc(NC(=O)C2CC(=O)N(CCc3ccc(F)cc3)C2)s1 (stereo not drawn),15.5%,–,–
COc1cccc(OCc2cc(C(=O)NCc3ccccn3)no2)c1,4.58%,"18.4 µM [falling, partial curve]",–
CS(=O)(=O)N(CC(=O)N1CCCCCC1)c1cccc([N+](=O)[O-])c1,23.4%,–,–
Cn1cnnc1SCC(=O)NC1CCCN(Cc2ccccc2F)C1 (stereo not drawn),5.67%,–,–

Compound,cell number change,AC50 [1],AC50 [2]
COc1ccc(-c2noc(N3CCC(C(=O)NCc4ccc(F)cc4)CC3)n2)cc1,20.5%,"8.2 µM [falling, partial curve, poor fit]",–
Cc1nc(-c2ccccn2)sc1C(=O)Nc1ccc(F)cc1,-20.4%,"23.1 µM [falling, partial curve, poor fit]",–
CCN(CC)S(=O)(=O)c1ccc(N2CCCCC2)c(NC(=O)/C=C/c2cc(OC)c(OC)c(OC)c2)c1,29.4%,–,–
Cc1cc(Cl)c2oc(C(=O)N(C)C(C)c3ccccn3)c(C)c2c1 (stereo not drawn),4.4%,–,–
COc1cccc(NC(=O)CSc2nnc3c(n2)[nH]c2ccc(C)cc23)c1,25.6%,"5.17 µM [rising, single point]","6.51 µM [rising, single point]"
Cc1[nH]c2ccc(-c3nnc(SCC(=O)c4ccc(F)cc4)o3)cc2c1C,1.63%,"8.2 µM [rising, partial curve, poor fit]",–
O=C(O)Cn1nc(-c2ccccc2)c2ccccc2c1=O,8.65%,"3.66 µM [falling, partial curve]",–
CCN(C(=S)Nc1ccc(OC(F)F)cc1)C1CCCCC1,-1.47%,–,"0.0517 µM [falling, partial curve, poor fit]"
Clc1ccccc1OCCCOc1cccc2cccnc12,7.66%,–,"2.91 µM [rising, partial curve]"
COc1ccccc1NC(=O)CSc1nc2c(oc3ccccc32)c(=O)n1C,-40.6%,"14.6 µM [falling, partial curve]","16.4 µM [falling, single point]"
COc1ccc(-c2nc(CN(C)C(C)c3ccon3)c(C)o2)c(C)c1C (stereo not drawn),28.9%,"0.00461 µM [rising, full curve, poor fit]",–
COc1ccc(C2=NO[C@@H]3[C@@H]4C[C@@H]([C@H]5C(=O)N(c6ccc7c(c6)OCO7)C(=O)[C@@H]45)[C@H]23)cc1OC,0.87%,"2.31 µM [rising, partial curve, poor fit]",–
COc1ccccc1CN(C)C(=O)c1cc(C)nc2ccccc12,9.21%,–,–
COc1ccc(C(=O)N/C(=C\c2ccc3c(c2)OCO3)C(=O)NCCc2nc3ccccc3[nH]2)cc1,1.57%,"3.26 µM [falling, partial curve, poor fit]",–
O=C(COC(=O)Cc1cn2ccsc2n1)NC12CC3CC(CC(C3)C1)C2,-14.1%,"32.6 µM [falling, single point]",–
Cc1ccc(S(=O)(=O)N2CCN(c3nc4ccccc4nc3-n3nc(C)cc3C)CC2)cc1,-1.19%,–,–
Cc1cc(Cl)ccc1OCCCC(=O)NCC1CCCO1 (stereo not drawn),39.8%,–,"5.8 µM [rising, full curve, poor fit]"
O=C(NCc1ccc2[nH]c3c(c2c1)CCCC3)c1ccc(S(=O)(=O)N2CCCC2)cc1,-6.7%,"7.31 µM [falling, partial curve, poor fit]",–
O=C(CCc1c[nH]c2ccccc12)Nc1ccc(S(=O)(=O)Nc2ncccn2)cc1,-34.4%,"23.1 µM [falling, single point]","0.103 µM [falling, full curve, poor fit]"

# Random excerpt: 2 compounds from above, in no set order.
Compound,cell number change,AC50 [1],AC50 [2]
COc1ccccc1CN(C)C(=O)c1cc(C)nc2ccccc12,9.21%,–,–
CCC(C)(C)c1nnc(NC(=O)C2CC(=O)N(CCc3ccc(F)cc3)C2)s1 (stereo not drawn),15.5%,–,–
